The supplement of paper PMC7830784
Structures can show the parent of a compound that is named as a salt. Some of the results follow. This data set is noisy: repeats of one test often differ as much as different tests do.

System: Brugia pahangi adult female
Assay: motility inhibition on day 3 relative to DMSO vehicle; higher = more active
Conditions: 10 µM; 3 days

| SMILES | motility inhibition on day 3 [%] |
| --- | --- |
| O=C(c1ccccc1)c1ccc2n1CCC2C(=O)O (configuration not stated) [ketorolac tromethamine] | 0.59 |
| COc1c(N2CCNC(C)C2)c(F)cc2c(=O)c(C(=O)O)cn(C3CC3)c12 (configuration not stated) [gatifloxacin] | < 0 |
| OCc1ccccc1O [salicyl alcohol] | 24.3 |
| NC(=O)[C@@H]1CCCN1C(=O)[C@H](Cc1c[nH]cn1)NC(=O)[C@@H]1CCC(=O)N1 [protirelin] | 12.3 |
| CN(C)CC(c1ccc(O)cc1)C1(O)CCCCC1 (configuration not stated) [desvenlafaxine succinate] | 10.1 |
| CC(=O)Oc1cccc(C)c1 [meta-cresyl acetate] | < 0 |
| CCN[C@@H]1C[C@H](N)[C@@H](O[C@H]2OC(CN)=CC[C@H]2N)[C@H](O)[C@H]1O[C@H]1OC[C@](C)(O)[C@H](NC)[C@H]1O [netilmicin sulfate] | 1.95 |
| CC(C)(O)c1ccccc1CC[C@@H](SCC1(CC(=O)O)CC1)c1cccc(/C=C/c2ccc3ccc(Cl)cc3n2)c1 [montelukast sodium] | 8.97 |
| CN1Cc2c(N)cccc2C(c2ccccc2)C1 (configuration not stated) [Nomifensine maleate] | 28.4 |
| FC(F)(F)COCC(F)(F)F [flurothyl] | < 0 |
| Cc1cc(-c2ccc(/N=N/c3ccc4c(S(=O)(=O)O)cc(S(=O)(=O)O)c(N)c4c3O)c(C)c2)ccc1/N=N/c1ccc2c(S(=O)(=O)O)cc(S(=O)(=O)O)c(N)c2c1O [evans blue] | 7.85 |
| C=CCSCC1Nc2cc(Cl)c(S(N)(=O)=O)cc2S(=O)(=O)N1 (configuration not stated) [althiazide] | 13 |
| CC(=O)N(CC(O)CN(C(C)=O)c1c(I)c(C(=O)NCC(O)CO)c(I)c(C(=O)NCC(O)CO)c1I)c1c(I)c(C(=O)NCC(O)CO)c(I)c(C(=O)NCC(O)CO)c1I (configuration not stated) [iodixanol] | 13.5 |
| NC(=O)NS(=O)(=O)c1ccc(N)cc1 [sulfacarbamide] | 6.79 |
| CN(C)CC/C=C1/c2ccccc2COc2ccc(CC(=O)O)cc21 | 19.2 |
| COc1cc(/C=C/C(=O)N2CCCCCCC2)cc(OC)c1OC [cinoctramide] | 23.7 |
| c1ccc(CN(CC2=NCCN2)c2ccccc2)cc1 [antazoline phosphate] | 10.8 |
| CC[C@H](C)C[C@H](C)CCCCCCCCC(=O)N[C@H]1C[C@@H](O)[C@@H](NCCN)NC(=O)[C@@H]2[C@@H](O)CCN2C(=O)[C@H]([C@H](O)CCN)NC(=O)[C@H]([C@H](O)[C@@H](O)c2ccc(O)cc2)NC(=O)[C@@H]2C[C@@H](O)CN2C(=O)[C@H]([C@@H](C)O)NC1=O [Caspofungin diacetate] | 27.4 |
| CCC[C@@]1(CCc2ccccc2)CC(O)=C([C@H](CC)c2cccc(NS(=O)(=O)c3ccc(C(F)(F)F)cn3)c2)C(=O)O1 [Tipranavir] | < 0 |
| C=CCOC(Cn1ccnc1)c1ccc(Cl)cc1Cl (configuration not stated) [enilconazole] | 9.22 |
| N=C(N)NCCN1CCCCCCC1 [guanethidine sulfate] | 17.4 |
| CC(C)CCCC(C)NC(C)C (configuration not stated) [iproheptine] | 40.4 |
| CC(CN(C)C)CN1c2ccccc2Sc2ccccc21 (configuration not stated) [trimeprazine tartrate] | 10.8 |
| CC1(C)[C@@H](OC(=O)CCC(=O)O)CC[C@]2(C)[C@H]3C(=O)C=C4[C@@H]5C[C@@](C)(C(=O)O)CC[C@]5(C)CC[C@@]4(C)[C@]3(C)CC[C@@H]12 [carbenoxolone sodium] | 4.58 |

| SMILES | motility inhibition on day 3 [%] |
| --- | --- |
| CC(=O)OCC(=O)[C@H]1CC[C@H]2[C@@H]3CCC4=CC(=O)CC[C@]4(C)[C@H]3CC[C@]12C [desoxycorticosterone acetate] | 5.3 |
| CCCOc1ccc(C(=O)OCCN(CC)CC)cc1N [proparacaine hydrochloride] | < 0 |
| CCN(CC)CCOCCOC(=O)C(CC)(CC)c1ccccc1 [oxelaidin citrate] | < 0 |
| O=C(O)CCC/C=C\C[C@@H]1[C@@H](/C=C/C(F)(F)COc2ccccc2)[C@H](O)C[C@@H]1O [Tafluprost (free acid)] | < 0 |
| C[C@]1(Cn2ccnn2)[C@H](C(=O)O)N2C(=O)C[C@H]2S1(=O)=O [tazobactam] | 35.4 |
| CC[C@@H](CO)NCCN[C@@H](CC)CO [ethambutol hydrochloride] | 2.65 |
| CC(=O)OCC(=O)[C@@]1(OC(C)=O)[C@@H](C)C[C@H]2[C@@H]3C[C@H](F)C4=CC(=O)C=C[C@]4(C)[C@@]3(F)[C@@H](O)C[C@@]21C [diflorasone diacetate] | 17 |
| CC(=O)[O-].CC(=O)[O-].[Ca+2] [Calcium acetate] | 98.5 |
| CCCCC1(COC(=O)CCC(=O)O)C(=O)N(c2ccccc2)N(c2ccccc2)C1=O [suxibuzone] | 7.91 |
| COc1cc(NC(C)CCCN)c2ncccc2c1 (configuration not stated) [primaquine diphosphate] | 50.7 |
| CN(C)[C@@H]1C(O)=C(C(N)=O)C(=O)[C@@]2(O)C(O)=C3C(=O)c4c(O)cccc4[C@@](C)(O)[C@H]3[C@H](O)[C@@H]12 [oxytetracycline] | 24.6 |
| Cc1cc(-c2ccccc2)nnc1NCCN1CCOCC1 [minaprine hydrochloride] | < 0 |
| NC(N)=Nc1nc(CSCC/C(N)=N/S(N)(=O)=O)cs1 [famotidine] | 9.66 |
| Cl.N=C(N)NCCC[C@H](N)C(=O)O [arginine hydrochloride] | 1.85 |
| CC1=C(/C=C/C(C)=C/C=C/C(C)=C\C(=O)O)C(C)(C)CCC1 [isotretinon] | 17.6 |
| CC/C(=C(/CC)c1ccc(O)cc1)c1ccc(O)cc1 [diethylstilbestrol] | 12.2 |
| CSc1ccc2c(c1)N(CCC1CCCCN1C)c1ccccc1S2 (configuration not stated) [Thioridazine hydrochloride] | 75.7 |
| CCOc1ccc2nc3cc(N)ccc3c(N)c2c1 [ethacridine lactate] | 14.9 |
| CCN(CC)CCNc1ccc(CO)c2sc3ccccc3c(=O)c12 [hycanthone] | 0.929 |
| O=C(COc1ccc(Cl)cc1)N1CCN(Cc2ccc3c(c2)OCO3)CC1 [fipexide hydrochloride] | 11.8 |
| N[C@@H](Cc1ccc(O)cc1)C(=O)O [tyrosine] | 30.8 |
| CN(Cc1cnc2nc(N)nc(N)c2n1)c1ccc(C(=O)N[C@@H](CCC(=O)O)C(=O)O)cc1 [methotrexate] | < 0 |
| Nc1nc(NC2CC2)c2ncn([C@H]3C=C[C@@H](CO)C3)c2n1 [abacavir sulfate] | < 0 |
| C[N+](C)(C)CCOC(=O)CCC(=O)OCC[N+](C)(C)C [Succinylcholine chloride] | < 0 |

5 of these compounds in another layout.
SMILES,motility inhibition on day 3 [%]
CCCOc1ccc(C(=O)OCCN(CC)CC)cc1N [proparacaine hydrochloride],< 0
CCN(CC)CCOCCOC(=O)C(CC)(CC)c1ccccc1 [oxelaidin citrate],< 0
O=C(O)CCC/C=C\C[C@@H]1[C@@H](/C=C/C(F)(F)COc2ccccc2)[C@H](O)C[C@@H]1O [Tafluprost (free acid)],< 0
C[C@]1(Cn2ccnn2)[C@H](C(=O)O)N2C(=O)C[C@H]2S1(=O)=O [tazobactam],35.4
CC[C@@H](CO)NCCN[C@@H](CC)CO [ethambutol hydrochloride],2.65

Continued:

| SMILES | motility inhibition on day 3 [%] |
| --- | --- |
| CC(Cc1ccc(O)c(O)c1)(NN)C(=O)O (stereo not drawn) [S-(-)-Carbidopa] | 35.8 |
| Cc1ccsc1/C=C/C1=NCCCN1C [morantel citrate] | 8 |
| CCCCCCCCCCCCCCCCOP(=O)([O-])OCC[N+](C)(C)C [miltefosine] | < 0 |
| CN(C)c1ccc(O)c2c1C[C@H]1C[C@H]3[C@H](N(C)C)C(O)=C(C(N)=O)C(=O)[C@@]3(O)C(O)=C1C2=O [minocycline hydrochloride] | 14.6 |
| COc1cccc(OC)c1C(=O)N[C@@H]1C(=O)N2[C@@H]1SC(C)(C)[C@@H]2C(=O)O [methicillin sodium] | 42.9 |
| Cc1ccc(S(=O)(=O)NC(=O)NN2CCCCCC2)cc1 [Tolazamide] | < 0 |
| C[C@]12CC[C@@H]3c4ccc(OS(=O)(=O)O)cc4CC[C@H]3[C@@H]1CCC2=O [estropipate] | 4.27 |
| CCOC(=O)c1ccc(N)cc1 [benzocaine] | < 0 |
| CCN(CC)CCOC(=O)C(c1ccccc1)c1ccccc1 [adiphenine hydrochloride] | 11.2 |
| CC(C)(C)CC(C)(C)c1ccc(O)c(Cc2ccc(Cl)cc2Cl)c1 [clofoctol] | < 0 |
| O=c1[nH]c(=O)c2ccccc2o1 [carsalam] | 6.98 |
| Nc1ccn([C@@H]2O[C@H](CO)[C@@H](O)[C@@H]2O)c(=O)n1 [cytarabine] | < 0 |
| COc1ccnc(C[S+]([O-])c2nc3cc(OC(F)F)ccc3[nH]2)c1OC (configuration not stated) [pantoprazole] | 4.43 |
| CO[C@H]1C[C@H](O[C@H]2[C@H](C)[C@@H](O[C@@H]3O[C@H](C)C[C@H](N(C)C)[C@H]3O)[C@@H](C)C[C@@]3(CO3)C(=O)[C@H](C)[C@@H](O)[C@@H](C)[C@@H](C)OC(=O)[C@@H]2C)O[C@@H](C)[C@@H]1O [oleandomycin phosphate] | < 0 |
| O=C(CCN1CCC(c2ccccc2)C1)c1ccc2c(c1)OCCO2 (configuration not stated) [Proroxan] | 65.2 |
| Nc1ccc(S(=O)(=O)Nc2ccccn2)cc1 [sulfapyridine] | < 0 |
| CN(C)CCCN1c2ccccc2Sc2ccc(Cl)cc21 [Chlorpromazine hydrochloride] | 15.7 |
| O=c1ccc2ccccc2o1 [coumarin] | 42.6 |
| COc1cc([C@@H]2c3cc4c(cc3[C@@H](O[C@@H]3O[C@@H]5CO[C@@H](c6cccs6)O[C@H]5[C@H](O)[C@H]3O)[C@H]3COC(=O)[C@H]23)OCO4)cc(OC)c1O [teniposide] | 4 |
| O=c1[nH]cnc2c1ncn2[C@@H]1O[C@H](CO)[C@@H](O)[C@H]1O [inosine] | 17.3 |
| CCOc1ccccc1OC(c1ccccc1)C1CNCCO1 (configuration not stated) [reboxetine mesylate] | < 0 |
| Cc1nc(Nc2ncc(C(=O)Nc3c(C)cccc3Cl)s2)cc(N2CCN(CCO)CC2)n1 [dasatinib] | 29.1 |
| CCN(CCO)CCCC(C)Nc1ccnc2cc(Cl)ccc12 (configuration not stated) [hydroxychloroquine sulfate] | 5.76 |
| COc1ccc(CC2c3cc(OC)c(OC)cc3CC[N+]2(C)CCC(=O)OCCCCCOC(=O)CC[N+]2(C)CCc3cc(OC)c(OC)cc3C2Cc2ccc(OC)c(OC)c2)cc1OC (configuration not stated) [atracurium besylate] | 3.42 |
